Here are results for 23 molecules from US20140287471A1, “VARIANT CBH I POLYPEPTIDES WITH REDUCED PRODUCT INHIBITION” (BP CORPORATION NORTN AMERICA INC., priority 2011, published 2014).

B1: 268_+411A Ala (protein, UniProt P62694 18-513, looked up, variant R268A R411A)
Exoglucanase 1: QSACTLQSETHPPLTWQKCSSGGTCTQQTGSVVIDANWRWTHATNSSTNCYDGNTWSSTLCPDNETCAKNCCLDGAAYASTYGVTTSGNSLSIGFVTQSAQKNVGARLYLMASDTTYQEFTLLGNEFSFDVDVSQLPCGLNGALYFVSMDADGGVSKYPTNTAGAKYGTGYCDSQCPRDLKFINGQANVEGWEPSSNNANTGIGGHGSCCSEMDIWEANSISEALTPHPCTTVGQEICEGDGCGGTYSDNAYGGTCDPDGCDWNPYRLGNTSFYGPGSSFTLDTTKKLTVVTQFETSGAINRYYVQNGVTFQQPNAELGSYSGNELNDDYCTAEEAEFGGSSFSDKGGLTQFKKATSGGMVLVMSLWDDYYANMLWLDSTYPTNETSSTPGAVAGSCSTSSGVPAQVESQSPNAKVTFSNIKFGPIGSTGNPSGGNPPGGNRGTTTTRRPATTTGSSPGPTQSHYGQCGGIGYSGPTVCASGTTCQVLNPYYSQCL
B2: 268A+411— Asp (protein, UniProt P62694 18-513, looked up, variant R268A R411D)
Exoglucanase 1: B1 Exoglucanase 1 with A394D
B3: 268A+411— Met (protein, UniProt P62694 18-513, looked up, variant R268A R411M)
Exoglucanase 1: B1 Exoglucanase 1 with A394M
B4: 411— Cys (protein, UniProt P62694 18-513, looked up, variant R411C)
Exoglucanase 1: B1 Exoglucanase 1 with A251R, A394C
B5: 268— Ala (protein, UniProt P62694 18-513, looked up, variant R268A)
Exoglucanase 1: B1 Exoglucanase 1 with A394R
B6: 268A+411— Ile (protein, UniProt P62694 18-513, looked up, variant R268A R411I)
Exoglucanase 1: B1 Exoglucanase 1 with A394I
B7: 411— Asp (protein, UniProt P62694 18-513, looked up, variant R411D)
Exoglucanase 1: B1 Exoglucanase 1 with A251R, A394D
B8: 268_+411A Ile (protein, UniProt P62694 18-513, looked up, variant R268I R411A)
Exoglucanase 1: B1 Exoglucanase 1 with A251I
B9: 411— Glu (protein, UniProt P62694 18-513, looked up, variant R411E)
Exoglucanase 1: B1 Exoglucanase 1 with A251R, A394E
B10: 268_+411A Val (protein, UniProt P62694 18-513, looked up, variant R268V R411A)
Exoglucanase 1: B1 Exoglucanase 1 with A251V
B11: 268_+411A Arg (protein, UniProt P62694 18-513, looked up, variant R411A)
Exoglucanase 1: B1 Exoglucanase 1 with A251R
B12: 268_+411A Trp (protein, UniProt P62694 18-513, looked up, variant R268W R411A)
Exoglucanase 1: B1 Exoglucanase 1 with A251W
B13: 268_+411A Pro (protein, UniProt P62694 18-513, looked up, variant R268P R411A)
Exoglucanase 1: B1 Exoglucanase 1 with A251P
B14: 268A+411— Glu (protein, UniProt P62694 18-513, looked up, variant R268A R411E)
Exoglucanase 1: B1 Exoglucanase 1 with A394E
B15: 268A+411— Trp (protein, UniProt P62694 18-513, looked up, variant R268A R411W)
Exoglucanase 1: B1 Exoglucanase 1 with A394W
B16: 411— Ser (protein, UniProt P62694 18-513, looked up, variant R411S)
Exoglucanase 1: B1 Exoglucanase 1 with A251R, A394S
B17: 268A+411— Gly (protein, UniProt P62694 18-513, looked up, variant R268A R411G)
Exoglucanase 1: B1 Exoglucanase 1 with A394G
B18: 268A+411— Val (protein, UniProt P62694 18-513, looked up, variant R268A R411V)
Exoglucanase 1: B1 Exoglucanase 1 with A394V
B19: 268_+411A Gln (protein, UniProt P62694 18-513, looked up, variant R268Q R411A)
Exoglucanase 1: B1 Exoglucanase 1 with A251Q
B20: 268A+411— Ala (protein, UniProt P62694 18-513, looked up, variant R268A R411A)
Exoglucanase 1: B1 Exoglucanase 1
B21: 268A+411— Leu (protein, UniProt P62694 18-513, looked up, variant R268A R411L)
Exoglucanase 1: B1 Exoglucanase 1 with A394L
B22: 268A+411— Cys (protein, UniProt P62694 18-513, looked up, variant R268A R411C)
Exoglucanase 1: B1 Exoglucanase 1 with A394C
B23: 411— Tyr (protein, UniProt P62694 18-513, looked up, variant R411Y)
Exoglucanase 1: B1 Exoglucanase 1 with A251R, A394Y

Numbering of substitutions follows the chain as printed.

The data set is described as follows: CBH I protein quantification by RP-HPLC. The settings on record: CBH I variant protein level in sample. On the procedure: CBH I protein concentrations in supernatants were quantified using RP-HPLC. The system used was an Agilent 1100 series model, equipped with quaternary pump (connected to reservoirs A and B, where reservoir A contained water with 0.1% trifluoroacetic acid and reservoir B contained acetonitrile with 0.1% trifluoroacetic acid), a diode array detector (monitored at 225 nm and 280 nm), and a fluorescence detector (monitored at ex/em 280/340 nm). An Agilent Zorbax 300SB-C3 (5 μM, 4.6×150 mm) was used to separate samples using a 20 minute method (30-50% B over 10 minutes; 100% B for 5 minutes; 30% B for 5 min; at 60° C. at a flow rate of 1 mL/min). CBH I was identified by a retention time at 7.8-8.2 minutes and quantitated by area. Concentrations were determined by reference to a standard curve generated with a commercial CBH I (E-CBH I from Megazymes).
Consider B1, for which the “RPLC Quantification” value turned out to be 14.4 µg/mL. For B2, the “RPLC Quantification” value is 5.4 µg/mL. Turning to B3, the “RPLC Quantification” value is 11.5 µg/mL. For the molecule B4, the “RPLC Quantification” value amounted to 18.4 µg/mL. In the case of B5, the “RPLC Quantification” value was 16.9 µg/mL. With B6 the figure was 2.6 µg/mL; with B7, 2.6 µg/mL; with B8, 10.3 µg/mL. Regarding B9, the “RPLC Quantification” value was 6.1 µg/mL. Turning to B10, the “RPLC Quantification” value amounted to 10.6 µg/mL. Consider B11, for which the “RPLC Quantification” value is 7.0 µg/mL. In the case of B12, the “RPLC Quantification” value turned out to be 11.8 µg/mL. Turning to B13, the “RPLC Quantification” value was determined as 11.2 µg/mL. Take B14: the “RPLC Quantification” value was determined as 5.3 µg/mL.

For the molecule B15, the “RPLC Quantification” value worked out at 2.5 µg/mL.

Take B16: the “RPLC Quantification” value came out at 10.6 µg/mL.

For the molecule B17, the “RPLC Quantification” value turned out to be 7.7 µg/mL. As for B18, the “RPLC Quantification” value was found to be 6.6 µg/mL. To B19 belongs 0.9 µg/mL; to B20, 17.0 µg/mL; to B21, 1.6 µg/mL. On to B22, for which the “RPLC Quantification” value amounted to 13.7 µg/mL. With B23, the “RPLC Quantification” value was determined as 13.4 µg/mL.
